Data taken from ChEMBL document CHEMBL3988442, “University of Dundee, Small-Polar-MMV Screening Library” (2021).

The chains behind the UniProt entries cited, without tags or fusion partners. Residues count along the entry.
UniProt P9WFT3, whole entry: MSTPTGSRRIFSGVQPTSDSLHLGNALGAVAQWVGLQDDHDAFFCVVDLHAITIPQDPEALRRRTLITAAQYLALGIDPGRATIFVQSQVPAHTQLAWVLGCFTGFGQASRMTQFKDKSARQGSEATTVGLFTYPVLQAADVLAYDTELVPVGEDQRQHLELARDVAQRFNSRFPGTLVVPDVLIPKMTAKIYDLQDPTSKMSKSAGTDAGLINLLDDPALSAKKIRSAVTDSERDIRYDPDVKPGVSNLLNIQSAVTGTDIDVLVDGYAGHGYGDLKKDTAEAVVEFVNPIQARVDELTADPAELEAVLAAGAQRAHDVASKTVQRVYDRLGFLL
UniProt Q4DA54, 1-478: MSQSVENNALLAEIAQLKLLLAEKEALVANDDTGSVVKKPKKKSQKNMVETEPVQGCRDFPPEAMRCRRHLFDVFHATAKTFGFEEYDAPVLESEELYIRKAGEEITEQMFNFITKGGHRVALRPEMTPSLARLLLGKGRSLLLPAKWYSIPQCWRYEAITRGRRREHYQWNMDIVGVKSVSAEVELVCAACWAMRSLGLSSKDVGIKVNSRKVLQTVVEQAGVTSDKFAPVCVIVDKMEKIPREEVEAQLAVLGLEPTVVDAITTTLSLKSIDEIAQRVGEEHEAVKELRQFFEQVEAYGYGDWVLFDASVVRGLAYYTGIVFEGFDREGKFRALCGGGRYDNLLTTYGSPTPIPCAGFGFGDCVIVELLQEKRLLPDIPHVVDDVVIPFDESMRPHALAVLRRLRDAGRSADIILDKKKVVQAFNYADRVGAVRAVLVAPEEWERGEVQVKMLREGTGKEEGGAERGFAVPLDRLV
UniProt Q8IDJ8, 1-583: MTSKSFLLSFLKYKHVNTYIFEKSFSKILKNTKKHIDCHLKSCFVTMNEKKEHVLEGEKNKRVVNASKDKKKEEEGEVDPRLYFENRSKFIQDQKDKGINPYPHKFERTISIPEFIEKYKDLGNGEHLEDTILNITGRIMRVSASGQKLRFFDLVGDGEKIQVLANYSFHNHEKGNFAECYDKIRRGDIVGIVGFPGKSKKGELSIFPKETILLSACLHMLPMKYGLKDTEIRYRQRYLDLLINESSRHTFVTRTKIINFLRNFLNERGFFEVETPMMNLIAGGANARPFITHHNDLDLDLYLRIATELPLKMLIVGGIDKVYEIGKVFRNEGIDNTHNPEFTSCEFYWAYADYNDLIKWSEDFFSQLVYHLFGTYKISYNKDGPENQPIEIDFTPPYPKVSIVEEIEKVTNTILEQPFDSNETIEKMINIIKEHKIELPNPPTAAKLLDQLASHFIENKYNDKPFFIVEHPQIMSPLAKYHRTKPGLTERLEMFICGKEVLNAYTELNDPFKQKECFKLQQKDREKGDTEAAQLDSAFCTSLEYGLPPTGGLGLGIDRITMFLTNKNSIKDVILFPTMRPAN
UniProt P9WNZ1, whole entry: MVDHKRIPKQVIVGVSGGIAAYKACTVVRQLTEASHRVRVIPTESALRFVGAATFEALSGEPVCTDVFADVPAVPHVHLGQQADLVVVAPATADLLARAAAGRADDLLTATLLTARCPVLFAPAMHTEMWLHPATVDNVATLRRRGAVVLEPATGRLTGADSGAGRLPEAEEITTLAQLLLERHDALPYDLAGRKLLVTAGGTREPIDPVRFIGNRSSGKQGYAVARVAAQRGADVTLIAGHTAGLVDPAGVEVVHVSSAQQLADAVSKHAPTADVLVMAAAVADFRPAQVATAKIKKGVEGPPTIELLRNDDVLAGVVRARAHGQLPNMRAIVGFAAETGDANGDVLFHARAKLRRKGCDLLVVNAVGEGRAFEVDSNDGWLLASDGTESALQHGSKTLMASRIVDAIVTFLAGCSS
UniProt I6X8D2, whole entry: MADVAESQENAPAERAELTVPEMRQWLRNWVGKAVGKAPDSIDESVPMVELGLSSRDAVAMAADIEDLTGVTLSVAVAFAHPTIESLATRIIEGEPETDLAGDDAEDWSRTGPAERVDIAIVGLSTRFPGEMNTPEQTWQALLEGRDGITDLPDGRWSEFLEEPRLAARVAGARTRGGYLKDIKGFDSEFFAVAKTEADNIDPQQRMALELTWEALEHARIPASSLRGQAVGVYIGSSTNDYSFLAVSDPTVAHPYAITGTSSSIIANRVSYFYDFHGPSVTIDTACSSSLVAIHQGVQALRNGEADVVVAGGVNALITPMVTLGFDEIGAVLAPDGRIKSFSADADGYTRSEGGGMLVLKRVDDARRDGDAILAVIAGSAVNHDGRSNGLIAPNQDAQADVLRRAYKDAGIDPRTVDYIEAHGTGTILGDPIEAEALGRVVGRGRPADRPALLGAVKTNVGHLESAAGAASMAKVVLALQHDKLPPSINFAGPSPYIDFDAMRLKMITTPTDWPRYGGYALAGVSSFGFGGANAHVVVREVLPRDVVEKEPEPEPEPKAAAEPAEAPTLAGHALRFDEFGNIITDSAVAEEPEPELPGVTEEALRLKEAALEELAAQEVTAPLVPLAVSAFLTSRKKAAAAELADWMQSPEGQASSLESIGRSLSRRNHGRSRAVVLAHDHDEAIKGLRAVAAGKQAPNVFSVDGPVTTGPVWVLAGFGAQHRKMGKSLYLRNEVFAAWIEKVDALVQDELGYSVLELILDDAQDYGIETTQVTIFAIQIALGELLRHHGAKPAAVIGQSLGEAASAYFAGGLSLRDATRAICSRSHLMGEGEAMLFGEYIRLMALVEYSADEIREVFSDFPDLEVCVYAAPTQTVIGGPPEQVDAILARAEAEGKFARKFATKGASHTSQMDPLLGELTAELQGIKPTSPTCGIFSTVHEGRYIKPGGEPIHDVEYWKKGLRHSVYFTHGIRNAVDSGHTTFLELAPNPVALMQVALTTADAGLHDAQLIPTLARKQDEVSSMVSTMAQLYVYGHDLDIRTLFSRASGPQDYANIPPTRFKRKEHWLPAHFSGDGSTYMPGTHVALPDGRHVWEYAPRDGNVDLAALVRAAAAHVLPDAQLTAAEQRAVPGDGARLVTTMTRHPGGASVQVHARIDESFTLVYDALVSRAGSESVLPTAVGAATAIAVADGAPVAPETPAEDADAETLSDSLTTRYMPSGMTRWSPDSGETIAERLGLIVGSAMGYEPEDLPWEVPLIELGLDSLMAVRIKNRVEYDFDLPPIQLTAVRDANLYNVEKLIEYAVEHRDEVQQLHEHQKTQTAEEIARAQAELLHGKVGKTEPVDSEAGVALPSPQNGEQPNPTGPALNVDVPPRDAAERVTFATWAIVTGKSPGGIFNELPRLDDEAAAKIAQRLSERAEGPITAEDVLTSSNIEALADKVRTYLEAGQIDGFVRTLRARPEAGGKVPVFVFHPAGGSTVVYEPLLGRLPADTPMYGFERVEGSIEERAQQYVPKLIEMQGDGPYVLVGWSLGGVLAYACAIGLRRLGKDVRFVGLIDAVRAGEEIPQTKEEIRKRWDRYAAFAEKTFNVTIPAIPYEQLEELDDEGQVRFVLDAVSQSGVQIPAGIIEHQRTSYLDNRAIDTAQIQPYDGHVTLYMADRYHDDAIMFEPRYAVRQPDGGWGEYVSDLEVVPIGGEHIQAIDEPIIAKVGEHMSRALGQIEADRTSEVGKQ

A: 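Tryptophan-tRNA ligase, Mycobacterium tuberculosis (UniProt P9WFT3). Enzyme assay of tryptophanyl-tRNA synthetase; the read-out is not stated. Compounds at 10 µM. Higher most likely means stronger inhibition; the record gives no direction and few retests gave an IC50. About 65,000 compounds were tested under these conditions; 0.098% (about 64) showed 50% or more at least once.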
B: 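Enzyme assay of histidyl-tRNA synthetase; the read-out is not stated. Target: Histidine-tRNA ligase, Trypanosoma cruzi CL Brener (UniProt Q4DA54). Concentration: 30 µM. Higher reads as stronger inhibition (inferred: compounds with an IC50 in retests scored well above the rest). About 69,000 compounds were tested under these conditions; 0.045% (about 31) showed 50% or more at least once.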
C: 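Enzyme assay of the cytosolic lysyl-tRNA synthetase in 384-well plates, read by luminescence. Target: Lysine-tRNA ligase, Plasmodium falciparum 3D7 (UniProt Q8IDJ8). Concentration: 30 µM. Higher reads as stronger inhibition, judged from the few compounds that gave an IC50. About 69,000 compounds were tested under these conditions; 0.071% (about 49) showed 50% or more at least once.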
D: 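Coenzyme A biosynthesis protein CoaBC, Mycobacterium tuberculosis (UniProt P9WNZ1). Enzyme assay of CoaBC with a phosphate dye (Biomol Green) read at 650 nm. Compounds at 30 µM. Higher reads as stronger inhibition, judged from the few compounds that gave an IC50. Most strong results did not repeat in a second test. About 67,000 compounds were tested under these conditions; 0.06% (about 40) showed 50% or more at least once.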
E: 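Polyketide synthase Pks13, Mycobacterium tuberculosis (UniProt I6X8D2). Enzyme assay of the thioesterase domain of polyketide synthase 13; the read-out is not stated. Tested at 30 µM. Higher reads as stronger inhibition (inferred from which compounds were picked for retests). About 67,000 compounds were tested under these conditions; 0.46% (about 300) showed 50% or more at least once.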
F: 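Cell assay of Leishmania donovani living inside macrophages; the read-out is not stated. Tested at 30 µM. The record gives no direction; compounds that gave an IC50 in retests scored well above the rest, so higher reads as stronger inhibition. About 69,000 compounds were tested under these conditions; 1.5% (about 1,000) showed 50% or more at least once.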

Each number is a percent effect as filed. How 0% and 100% were set is not recorded. Most values in the screen are low, and negative values occur. This is an unselected part of the compounds tested. Two or more numbers in one place are separate tests of the same structure; such repeats can differ widely. A dash means the value is not listed here; it may have been measured.

compound | A | B | C | D | E | F
Cc1nc(CCN)cc(N2CCC(O)(c3ccccc3)C2)n1 (stereo not given) | -4.339 | 1.911 | 2.733 | - | -13.95 | 11.63
COc1cccc(CN2CCc3nc(C(=O)NCC(C)C)sc3CC2)c1.O=C(O)C(F)(F)F | - | - | - | - | - | 13.05
CC(=O)Nc1ccc(OCc2noc(C(=O)N3CCCCCC3)n2)cc1 | 4.207 | 11.88 | -2.265 | -1.928 | -3.825 | -2.13
Cc1ccc2c(c1)C(NC(=O)N(C)C)CC21CCN(CC2CC2)CC1 (stereo not given) | -3.635 | 6.667 | 1.132 | 5.055 | -9.532 | -
N#Cc1c(C2CCOC2)cc(-c2ccc(N3CCCCC3)cc2)nc1N (stereo not given) | -2.187 | 3.061 | 9.62 | -1.587 | -9.223 | 25.22
Cc1ccc(CN2C[C@@H]3COC[C@H](NS(C)(=O)=O)[C@@H]3C2)s1 | -5.94 | 0.9524 | -2.571 | 6.042 | -16.59 | -
O=C(c1nccc2ccccc12)N1CCCCC1Cn1cccn1 (stereo not given) | -1.254 | 2.041 | 0.4064 | 4.178 | -17.52 | 13.76
Cc1cc(C2CCCN(CCCS(N)(=O)=O)C2)n[nH]1 (stereo not given) | -5.951 | -1.744 | -0.6741 | -13.6 | 6.625 | 7.133
CNC(=O)NCC1CCC2(CCN(c3ncccn3)CC2)CO1 (stereo not given) | - | 4.233 | 3.438 | 3.704 | -6.675 | -1.769
CC(C)N1CC[C@H](c2nc3ccc(C(F)(F)F)cc3[nH]2)C1 | -4.593 | 7.921 | 3.535 | 6.095 | -4.349 | -46.62
CC1CCc2nn(CCNC(=O)C3CCCC3)c(=O)cc2C1 (stereo not given) | -6.368 | 3.876 | 2.89 | -6.994 | -1.718 | -19.28
COC(=O)c1ccc(C2CC(=O)Oc3cc(C)[nH]c(=O)c32)cc1 (stereo not given) | 3.216 | -3.825 | 3.883 | -5.518 | -23.38 | -28.15
CC1c2ncc(COCC3CCOCC3)n2CCN1C(=O)c1ccco1 (stereo not given) | 10.99 | 5.785 | 3.137 | 7.143 | -24.87 | 9.504
O=C(CCC1CCN(C(=O)c2cc[nH]c2)CC1)NCc1cccc(Cl)c1 | -1.933 | -0.5405 | 4.682 | 15.91 | -6.901 | -10.27
CCc1nc(C)c(C(=O)N(C)Cc2cnn(-c3cccc(OC)c3)c2)s1 | -2.167 | 6.494 | 2.47 | - | -17.65 | 26.63
CCn1cc(C(=O)Nc2ccc(C)cc2C(=O)NC)cn1 | 1.833 | 0.9804 | 2.47 | -1.789 | -36.31 | 22.55
CCN(c1ccc(C(=O)N(Cc2cnn(C)c2)C(C)C)cn1)C(C)C | -3.191 | 6.122 | 5.499 | 7.991 | -10.92 | 9.209
Cn1cc(C2COC3(CCN(C(=O)c4cnccn4)CC3)C2)cn1 (stereo not given) | 0.3127 | 8.824 | 0.2015 | 5.25 | -9.987 | -8.774
Cc1nc(Nc2nncs2)cc(C2CCCN2)n1 (stereo not given) | -7.049 | 6.061 | -0.5264 | 0.5256 | -6.504 | -
CC(C)c1nc(N2CCN3CCCC3C2)c2cnn(C)c2n1 (stereo not given) | -1.891 | 1.653 | 5.362 | 9.677 | - | 31.08
CS(=O)(=O)c1ccccc1N[C@@H]1c2ccccc2C[C@@H]1O | 8.497 | 11.52 | -2.043 | 4.866 | -1.011 | 8.08
[H][C@]12CC[C@]([H])(CN(Cc3ccccc3)C1)N(C(=O)OCC)C2 | - | - | - | - | - | 27.53
Cc1cnc(C(=O)N2C[C@H](N3CCOCC3)[C@@H]3OCCC[C@@H]32)cn1 | - | 3.518 | 1.823 | 4.332 | -4.453 | -
Cc1nn2c(N3CCC(C(N)=O)CC3)cc(-c3ccccc3)nc2c1C | -2.559 | 3.061 | 3.341 | 2.545 | -24.62 | 20.71
Cc1cccnc1NC(=O)c1ccc(-n2ncc(C#N)c2N)cc1 | -6.877 | 6.857 | -0.2762 | 5.774 | -5.539 | 12.61
[H][C@]12CCN(C(=O)c3ccncc3)CC[C@@]1([H])S(=O)(=O)N(CC(=O)N(C)C)C2 | - | - | - | - | - | 36.05 & 6.755
[H][C@@]12CS(=O)(=O)C[C@]1([H])N(S(=O)(=O)N1CCc3ccccc3C1)CCN2CC | - | - | - | - | - | 21.62
N#Cc1ccc(OC2CCN(CC(=O)NCC(F)(F)F)CC2)cc1 | 2.861 | 1.587 | 7.258 | 2.273 | 4.341 | -18.24
COCc1cn(C2CCN(CCC(C)c3ccccc3)CC2)nn1 (stereo not given) | -5.795 | 6.468 | 2.631 | -1.975 | -28.69 | 15.55
O=C(O)C(F)(F)F.O=C(O)C(F)(F)F.[H][C@@]12OCCN(Cc3ccsc3)[C@@]1([H])CC[C@H]2OCc1cccc(C)n1 | - | - | - | - | - | 2.43
CN1CCN(Cc2cn3c(n2)CN(Cc2ccncc2)CC3)CC1 | - | -1.508 | -2.141 | -1.856 | -43.56 | 30.98
Cc1nc([C@H]2C[C@H]3CN(C(=O)c4cc(C)c(C)s4)CC[C@@H]3O2)no1 | 5.703 | -2.97 | 6.091 | 7.015 | -11.89 | -
CC(=O)NCc1nc(CCOc2ccc(Cl)cc2)no1 | -3.909 | 3.279 | 7.226 | -2.397 | -30.62 | 7.139

Once more, the final 4:

| compound | A | B | C | D | E | F |
|---|---|---|---|---|---|---|
| `O=C(O)C(F)(F)F.O=C(O)C(F)(F)F.[H][C@@]12OCCN(Cc3ccsc3)[C@@]1([H])CC[C@H]2OCc1cccc(C)n1` | - | - | - | - | - | 2.43 |
| `CN1CCN(Cc2cn3c(n2)CN(Cc2ccncc2)CC3)CC1` | - | -1.508 | -2.141 | -1.856 | -43.56 | 30.98 |
| `Cc1nc([C@H]2C[C@H]3CN(C(=O)c4cc(C)c(C)s4)CC[C@@H]3O2)no1` | 5.703 | -2.97 | 6.091 | 7.015 | -11.89 | - |
| `CC(=O)NCc1nc(CCOc2ccc(Cl)cc2)no1` | -3.909 | 3.279 | 7.226 | -2.397 | -30.62 | 7.139 |